No constants are given. Whether binding was seen depends on the method and setting. Some entries that bind do so weakly or less than the wild type.

Chains of the proteins cited; added tags and fusions are not shown.
UniProt P61586: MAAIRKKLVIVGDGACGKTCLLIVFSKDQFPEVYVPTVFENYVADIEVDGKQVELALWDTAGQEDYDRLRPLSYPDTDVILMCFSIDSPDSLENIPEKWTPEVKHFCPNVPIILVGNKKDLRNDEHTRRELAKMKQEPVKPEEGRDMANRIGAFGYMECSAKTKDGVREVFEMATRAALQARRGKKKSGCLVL
UniProt Q13526: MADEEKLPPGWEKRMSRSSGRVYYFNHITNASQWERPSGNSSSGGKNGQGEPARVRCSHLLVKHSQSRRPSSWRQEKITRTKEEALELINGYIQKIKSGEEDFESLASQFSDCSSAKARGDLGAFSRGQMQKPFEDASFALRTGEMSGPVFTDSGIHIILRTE

In this assay the target is His6-TAT-Myc-RhoA (UniProt P61586). The assay can be described thus: co-IP; purified recombinant proteins mixed in Nonidet P-40 buffer, incubated with normal IgG or anti-Myc Ab, then protein-G Sepharose beads; immunoblot with anti-Pin1 and anti-GFP; both purified. In general terms: In western blotting, separated proteins are transferred to a membrane and probed.

Consider “His6-TAT-HA-Pin1 (recombinant full-length Pin1) (from UniProt Q13526 1-163) (enzyme)”, for which the binding entry is reported as “binds”.

The values are drawn from publication PMC7910834.
